{
  "sequences": {"note": "Chains of the proteins cited; added tags and fusions are not shown. Lines headed by an entry give the natural chain unless they say otherwise; changes in a name come on top.", "UniProt P62072": "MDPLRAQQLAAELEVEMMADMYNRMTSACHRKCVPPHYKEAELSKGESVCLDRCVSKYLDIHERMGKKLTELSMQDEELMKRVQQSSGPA", "UniProt Q9H2K8": "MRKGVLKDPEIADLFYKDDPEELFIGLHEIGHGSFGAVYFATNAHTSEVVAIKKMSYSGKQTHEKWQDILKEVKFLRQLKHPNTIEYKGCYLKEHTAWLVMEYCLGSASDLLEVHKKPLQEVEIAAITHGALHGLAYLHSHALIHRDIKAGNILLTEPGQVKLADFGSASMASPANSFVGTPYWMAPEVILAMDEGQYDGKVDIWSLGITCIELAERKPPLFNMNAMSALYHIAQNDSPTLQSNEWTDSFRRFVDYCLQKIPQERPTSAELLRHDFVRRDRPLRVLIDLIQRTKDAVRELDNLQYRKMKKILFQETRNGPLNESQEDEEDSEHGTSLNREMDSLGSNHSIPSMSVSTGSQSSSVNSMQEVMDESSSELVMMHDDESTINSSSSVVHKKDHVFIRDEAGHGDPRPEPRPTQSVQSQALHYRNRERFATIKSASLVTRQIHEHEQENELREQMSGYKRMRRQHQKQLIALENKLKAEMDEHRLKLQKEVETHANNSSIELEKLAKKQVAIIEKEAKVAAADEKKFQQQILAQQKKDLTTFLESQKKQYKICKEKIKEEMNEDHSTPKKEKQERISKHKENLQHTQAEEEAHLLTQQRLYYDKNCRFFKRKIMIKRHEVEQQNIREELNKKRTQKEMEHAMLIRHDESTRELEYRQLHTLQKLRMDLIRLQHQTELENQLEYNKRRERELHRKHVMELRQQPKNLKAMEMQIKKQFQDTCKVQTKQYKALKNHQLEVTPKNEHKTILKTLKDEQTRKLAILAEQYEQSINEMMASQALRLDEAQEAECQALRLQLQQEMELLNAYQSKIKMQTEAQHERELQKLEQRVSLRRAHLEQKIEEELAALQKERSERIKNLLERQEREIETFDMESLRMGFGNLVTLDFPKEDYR", "UniProt O75896": "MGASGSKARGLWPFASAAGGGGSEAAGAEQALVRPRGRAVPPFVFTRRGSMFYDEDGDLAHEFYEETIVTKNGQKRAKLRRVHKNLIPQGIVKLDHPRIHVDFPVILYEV", "UniProt Q15714": "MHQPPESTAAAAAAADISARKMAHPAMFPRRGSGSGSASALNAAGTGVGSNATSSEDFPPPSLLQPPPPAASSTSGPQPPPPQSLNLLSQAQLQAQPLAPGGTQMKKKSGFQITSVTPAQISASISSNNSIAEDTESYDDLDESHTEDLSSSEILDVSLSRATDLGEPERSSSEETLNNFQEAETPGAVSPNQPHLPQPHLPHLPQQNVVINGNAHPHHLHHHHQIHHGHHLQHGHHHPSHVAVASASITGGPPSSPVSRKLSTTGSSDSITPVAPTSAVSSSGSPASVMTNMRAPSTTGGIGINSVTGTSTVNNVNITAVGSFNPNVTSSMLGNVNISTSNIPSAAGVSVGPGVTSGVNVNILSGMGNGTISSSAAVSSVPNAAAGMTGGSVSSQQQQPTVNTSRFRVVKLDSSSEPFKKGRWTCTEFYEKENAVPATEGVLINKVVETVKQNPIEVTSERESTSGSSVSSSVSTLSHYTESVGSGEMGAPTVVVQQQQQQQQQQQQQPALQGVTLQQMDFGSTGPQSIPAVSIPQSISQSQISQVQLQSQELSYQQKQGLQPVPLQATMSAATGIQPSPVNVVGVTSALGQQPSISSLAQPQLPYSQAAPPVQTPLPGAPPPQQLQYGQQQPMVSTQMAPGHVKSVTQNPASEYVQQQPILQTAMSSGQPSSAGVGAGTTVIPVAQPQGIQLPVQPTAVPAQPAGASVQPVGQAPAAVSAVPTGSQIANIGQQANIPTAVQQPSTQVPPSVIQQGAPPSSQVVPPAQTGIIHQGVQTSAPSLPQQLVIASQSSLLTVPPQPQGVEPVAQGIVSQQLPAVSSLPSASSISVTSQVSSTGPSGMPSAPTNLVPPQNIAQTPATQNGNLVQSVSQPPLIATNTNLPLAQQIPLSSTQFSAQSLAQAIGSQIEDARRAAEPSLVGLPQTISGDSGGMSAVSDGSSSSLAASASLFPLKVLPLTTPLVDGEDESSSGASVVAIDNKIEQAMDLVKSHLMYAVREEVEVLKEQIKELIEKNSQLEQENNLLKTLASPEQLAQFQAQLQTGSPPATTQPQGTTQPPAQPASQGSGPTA", "UniProt Q9NQ88": "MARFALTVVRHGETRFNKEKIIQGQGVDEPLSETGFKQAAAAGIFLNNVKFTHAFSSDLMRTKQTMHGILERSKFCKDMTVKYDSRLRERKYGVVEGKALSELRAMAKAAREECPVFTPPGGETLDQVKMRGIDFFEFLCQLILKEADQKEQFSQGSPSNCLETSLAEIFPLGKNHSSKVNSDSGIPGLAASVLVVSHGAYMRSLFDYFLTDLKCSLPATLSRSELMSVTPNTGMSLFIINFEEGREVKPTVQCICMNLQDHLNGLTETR", "UniProt Q6ZVM7": "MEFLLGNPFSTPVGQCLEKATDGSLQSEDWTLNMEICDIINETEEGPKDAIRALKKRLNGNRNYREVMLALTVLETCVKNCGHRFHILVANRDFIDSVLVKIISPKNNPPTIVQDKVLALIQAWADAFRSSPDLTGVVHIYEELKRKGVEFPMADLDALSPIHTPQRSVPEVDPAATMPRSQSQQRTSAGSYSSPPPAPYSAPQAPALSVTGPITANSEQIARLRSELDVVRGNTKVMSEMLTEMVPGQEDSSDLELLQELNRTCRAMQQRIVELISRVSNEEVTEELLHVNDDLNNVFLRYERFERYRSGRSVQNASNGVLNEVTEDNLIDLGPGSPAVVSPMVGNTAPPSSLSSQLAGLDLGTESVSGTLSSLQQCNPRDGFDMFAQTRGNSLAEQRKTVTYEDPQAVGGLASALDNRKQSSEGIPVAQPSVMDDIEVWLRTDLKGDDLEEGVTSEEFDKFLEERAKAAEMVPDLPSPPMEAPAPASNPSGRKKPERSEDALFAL", "UniProt Q71U36, whole entry": "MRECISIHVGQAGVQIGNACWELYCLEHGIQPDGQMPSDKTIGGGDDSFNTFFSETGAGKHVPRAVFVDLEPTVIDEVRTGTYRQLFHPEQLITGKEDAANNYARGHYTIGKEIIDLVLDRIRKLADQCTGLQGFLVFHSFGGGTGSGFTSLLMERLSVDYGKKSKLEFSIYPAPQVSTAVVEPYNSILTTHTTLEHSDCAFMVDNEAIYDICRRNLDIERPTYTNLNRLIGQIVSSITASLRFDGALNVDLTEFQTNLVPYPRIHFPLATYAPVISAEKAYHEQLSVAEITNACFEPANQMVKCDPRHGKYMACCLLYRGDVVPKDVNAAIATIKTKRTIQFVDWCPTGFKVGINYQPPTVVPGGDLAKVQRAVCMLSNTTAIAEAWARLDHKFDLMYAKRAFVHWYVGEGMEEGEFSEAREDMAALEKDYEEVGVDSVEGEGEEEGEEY", "UniProt Q9BU02": "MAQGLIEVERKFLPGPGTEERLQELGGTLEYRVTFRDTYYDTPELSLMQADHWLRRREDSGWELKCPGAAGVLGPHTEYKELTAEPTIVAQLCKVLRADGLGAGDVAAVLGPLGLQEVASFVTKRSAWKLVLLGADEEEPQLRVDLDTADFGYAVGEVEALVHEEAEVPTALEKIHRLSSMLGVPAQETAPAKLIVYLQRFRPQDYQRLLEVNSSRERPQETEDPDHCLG", "UniProt Q9UBT2": "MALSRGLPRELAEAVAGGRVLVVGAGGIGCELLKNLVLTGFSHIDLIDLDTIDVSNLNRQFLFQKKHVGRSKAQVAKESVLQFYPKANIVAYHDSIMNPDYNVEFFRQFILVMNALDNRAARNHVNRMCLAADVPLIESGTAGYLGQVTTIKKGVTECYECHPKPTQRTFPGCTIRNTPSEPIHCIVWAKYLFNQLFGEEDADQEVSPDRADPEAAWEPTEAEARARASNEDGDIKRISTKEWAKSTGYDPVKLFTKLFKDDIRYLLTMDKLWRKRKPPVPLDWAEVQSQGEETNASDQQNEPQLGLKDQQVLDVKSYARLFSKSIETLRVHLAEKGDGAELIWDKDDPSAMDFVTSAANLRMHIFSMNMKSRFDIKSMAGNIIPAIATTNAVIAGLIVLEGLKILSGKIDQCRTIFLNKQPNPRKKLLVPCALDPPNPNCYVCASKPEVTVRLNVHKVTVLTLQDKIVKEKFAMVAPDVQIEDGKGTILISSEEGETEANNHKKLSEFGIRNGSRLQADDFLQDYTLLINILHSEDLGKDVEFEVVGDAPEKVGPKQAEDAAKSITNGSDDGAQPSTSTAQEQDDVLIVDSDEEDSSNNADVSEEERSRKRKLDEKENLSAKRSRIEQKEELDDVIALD", "UniProt O95551": "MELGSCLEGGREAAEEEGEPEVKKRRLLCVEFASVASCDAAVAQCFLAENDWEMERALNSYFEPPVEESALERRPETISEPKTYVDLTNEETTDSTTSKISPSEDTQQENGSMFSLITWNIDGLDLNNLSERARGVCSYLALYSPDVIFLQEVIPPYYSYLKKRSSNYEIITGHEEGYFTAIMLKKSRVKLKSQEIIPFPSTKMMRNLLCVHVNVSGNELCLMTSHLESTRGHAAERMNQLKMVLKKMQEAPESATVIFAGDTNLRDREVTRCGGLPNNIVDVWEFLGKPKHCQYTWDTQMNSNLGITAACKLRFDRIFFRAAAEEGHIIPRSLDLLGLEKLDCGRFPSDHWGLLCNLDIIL", "UniProt Q15554": "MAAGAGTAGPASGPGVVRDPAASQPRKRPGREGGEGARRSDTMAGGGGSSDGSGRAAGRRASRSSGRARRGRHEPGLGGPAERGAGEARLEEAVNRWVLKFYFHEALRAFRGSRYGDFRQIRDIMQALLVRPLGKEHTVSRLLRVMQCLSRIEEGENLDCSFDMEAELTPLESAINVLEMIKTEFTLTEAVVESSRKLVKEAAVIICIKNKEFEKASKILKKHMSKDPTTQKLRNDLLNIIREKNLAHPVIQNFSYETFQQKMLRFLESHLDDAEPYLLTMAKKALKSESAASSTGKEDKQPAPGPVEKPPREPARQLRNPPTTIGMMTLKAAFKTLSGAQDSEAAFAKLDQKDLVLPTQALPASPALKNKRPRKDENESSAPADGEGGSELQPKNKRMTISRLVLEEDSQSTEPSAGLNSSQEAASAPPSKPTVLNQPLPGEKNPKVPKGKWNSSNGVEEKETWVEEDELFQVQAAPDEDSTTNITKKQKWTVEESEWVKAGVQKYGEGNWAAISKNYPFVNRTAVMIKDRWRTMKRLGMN", "UniProt Q8IYQ7": "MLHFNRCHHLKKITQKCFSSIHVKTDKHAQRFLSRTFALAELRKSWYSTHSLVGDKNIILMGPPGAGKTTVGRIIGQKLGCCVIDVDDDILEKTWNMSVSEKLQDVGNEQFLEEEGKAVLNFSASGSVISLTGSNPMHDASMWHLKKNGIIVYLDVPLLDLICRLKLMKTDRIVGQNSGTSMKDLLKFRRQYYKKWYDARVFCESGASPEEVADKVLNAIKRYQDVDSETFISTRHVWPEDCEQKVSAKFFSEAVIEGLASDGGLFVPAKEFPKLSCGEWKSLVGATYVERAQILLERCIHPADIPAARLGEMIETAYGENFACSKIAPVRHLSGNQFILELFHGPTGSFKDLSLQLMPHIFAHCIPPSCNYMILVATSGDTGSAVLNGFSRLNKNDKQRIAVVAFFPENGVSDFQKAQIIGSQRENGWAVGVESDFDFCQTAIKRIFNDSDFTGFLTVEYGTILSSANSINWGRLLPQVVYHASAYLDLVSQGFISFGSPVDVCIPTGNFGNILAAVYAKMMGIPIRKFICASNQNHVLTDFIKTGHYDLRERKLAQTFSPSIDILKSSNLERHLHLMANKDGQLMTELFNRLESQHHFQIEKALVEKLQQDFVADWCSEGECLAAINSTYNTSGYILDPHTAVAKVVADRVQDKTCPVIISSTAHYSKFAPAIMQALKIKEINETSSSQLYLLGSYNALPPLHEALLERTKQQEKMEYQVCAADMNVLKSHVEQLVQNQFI", "UniProt Q15170": "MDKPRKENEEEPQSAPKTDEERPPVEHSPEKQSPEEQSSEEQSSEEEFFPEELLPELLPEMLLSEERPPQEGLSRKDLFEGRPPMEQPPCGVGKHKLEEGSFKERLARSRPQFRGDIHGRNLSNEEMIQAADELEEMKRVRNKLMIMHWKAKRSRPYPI", "UniProt Q9BQE3, whole entry": "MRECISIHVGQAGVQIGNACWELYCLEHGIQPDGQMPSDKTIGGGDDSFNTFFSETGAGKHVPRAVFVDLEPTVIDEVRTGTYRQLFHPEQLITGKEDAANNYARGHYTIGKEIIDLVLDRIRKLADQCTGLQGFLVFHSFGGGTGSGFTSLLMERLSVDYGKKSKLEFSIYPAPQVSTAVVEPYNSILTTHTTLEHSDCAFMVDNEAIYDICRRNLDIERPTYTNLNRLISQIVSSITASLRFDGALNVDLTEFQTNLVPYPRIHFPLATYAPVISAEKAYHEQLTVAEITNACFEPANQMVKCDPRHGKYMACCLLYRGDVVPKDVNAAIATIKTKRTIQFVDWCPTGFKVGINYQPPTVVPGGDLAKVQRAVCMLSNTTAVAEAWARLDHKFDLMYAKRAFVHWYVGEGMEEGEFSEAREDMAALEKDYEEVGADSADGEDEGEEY"},
  "source": "the supplement of paper PMC7666118",
  "note": "Some of the results follow.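 How the source made its calls: active = dose-dependent thermal stabilisation significant by F-test of dose-response against flat model at 10% FDR; inactive = not significant.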",
  "data": [
    {"compound": "Nc1nc2c(ncn2[C@@H]2O[C@H](COP(=O)(O)OP(=O)(O)OP(=O)(O)O)[C@@H](O)[C@H]2O)c(=O)[nH]1", "test": "dose-dependent thermal stabilisation call (2D-TPP, DLPTP, 10% FDR) (binary (1 = stabilised)); higher = stabilised by the compound", "details": "system: Jurkat gel-filtered lysate; concentration range 1-500 µM", "values": [
      {"target": "TIMM10 (UniProt P62072)", "dose-dependent thermal stabilisation call": "inactive: 0"},
      {"target": "UBA7 (UniProt P41226)", "dose-dependent thermal stabilisation call": "inactive: 0"},
      {"target": "TESC (UniProt Q96BS2)", "dose-dependent thermal stabilisation call": "inactive: 0"},
      {"target": "TLK1 (UniProt Q9UKI8)", "dose-dependent thermal stabilisation call": "active: 1"},
      {"target": "TPRKB (UniProt Q9Y3C4)", "dose-dependent thermal stabilisation call": "active: 1"},
      {"target": "TARBP1 (UniProt Q13395)", "dose-dependent thermal stabilisation call": "inactive: 0"},
      {"target": "TICRR (UniProt Q7Z2Z1)", "dose-dependent thermal stabilisation call": "inactive: 0"},
      {"target": "TAOK3 (UniProt Q9H2K8)", "dose-dependent thermal stabilisation call": "active: 1"},
      {"target": "TUSC2 (UniProt O75896)", "dose-dependent thermal stabilisation call": "inactive: 0"},
      {"target": "TDRD7 (UniProt Q8NHU6)", "dose-dependent thermal stabilisation call": "inactive: 0"},
      {"target": "TBC1D10B (UniProt Q4KMP7)", "dose-dependent thermal stabilisation call": "inactive: 0"},
      {"target": "TSC22D1 (UniProt Q15714)", "dose-dependent thermal stabilisation call": "inactive: 0"},
      {"target": "TIGAR (UniProt Q9NQ88)", "dose-dependent thermal stabilisation call": "active: 1"},
      {"target": "TAL1 (UniProt P17542)", "dose-dependent thermal stabilisation call": "inactive: 0"},
      {"target": "TTC4 (UniProt O95801)", "dose-dependent thermal stabilisation call": "active: 1"},
      {"target": "TARS2 (UniProt Q9BW92)", "dose-dependent thermal stabilisation call": "inactive: 0"},
      {"target": "TBC1D10A (UniProt Q9BXI6)", "dose-dependent thermal stabilisation call": "inactive: 0"},
      {"target": "TOE1 (UniProt Q96GM8)", "dose-dependent thermal stabilisation call": "inactive: 0"},
      {"target": "TBC1D25 (UniProt Q3MII6)", "dose-dependent thermal stabilisation call": "inactive: 0"},
      {"target": "TNRC6A (UniProt Q8NDV7)", "dose-dependent thermal stabilisation call": "inactive: 0"},
      {"target": "TRPT1 (UniProt Q86TN4)", "dose-dependent thermal stabilisation call": "inactive: 0"},
      {"target": "TP53BP2 (UniProt Q13625)", "dose-dependent thermal stabilisation call": "inactive: 0"},
      {"target": "TOM1L2 (UniProt Q6ZVM7)", "dose-dependent thermal stabilisation call": "inactive: 0"},
      {"target": "TBC1D1 (UniProt Q86TI0)", "dose-dependent thermal stabilisation call": "inactive: 0"},
      {"target": "TUBA1A (UniProt Q71U36)", "dose-dependent thermal stabilisation call": "inactive: 0"},
      {"target": "THTPA (UniProt Q9BU02)", "dose-dependent thermal stabilisation call": "inactive: 0"},
      {"target": "TXNRD1 (UniProt Q16881)", "dose-dependent thermal stabilisation call": "inactive: 0"},
      {"target": "UBA2 (UniProt Q9UBT2)", "dose-dependent thermal stabilisation call": "inactive: 0"},
      {"target": "TBC1D14 (UniProt Q9P2M4)", "dose-dependent thermal stabilisation call": "inactive: 0"},
      {"target": "TDP2 (UniProt O95551)", "dose-dependent thermal stabilisation call": "inactive: 0"},
      {"target": "TERF2 (UniProt Q15554)", "dose-dependent thermal stabilisation call": "active: 1"},
      {"target": "UBA1 (UniProt P22314)", "dose-dependent thermal stabilisation call": "inactive: 0"},
      {"target": "TUBG1 (UniProt P23258)", "dose-dependent thermal stabilisation call": "active: 1"},
      {"target": "THNSL1 (UniProt Q8IYQ7)", "dose-dependent thermal stabilisation call": "inactive: 0"},
      {"target": "TCEAL1 (UniProt Q15170)", "dose-dependent thermal stabilisation call": "inactive: 0"},
      {"target": "TUBA1C (UniProt Q9BQE3)", "dose-dependent thermal stabilisation call": "active: 1"}
    ]}
  ]
}
